Measured data: PubChem BioAssay AID1224826 (NIAID, 2016)

- Screen: 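Knock-downs that raise or lower Tnf reporter signal after endotoxin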 (primary screen)
- System: RAW264.7 G9 macrophages from mouse bearing reporters for p65 (GFP) and the Tnf promoter (mCherry)
- Reagent: siRNA pool against mouse genes, 100 nM
- Time to read-out: 16 h of LPS stimulation, after 2 days of siRNA transfection
- Challenge: bacterial lipopolysaccharide (Salmonella minnesota R595), 10 ng/ml
- Measurement: 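Imaged Tnf reporter mCherry in nuclei, minus background, normalised per plate to the median and expressed as robust z-scores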
- Scale: Tnf reporter robust z-score: higher = stronger Tnf promoter reporter signal after LPS
- Rule for the call: 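Called active when robust z-score is at most -1.3, matching the median of the Tlr4 knock-down control, or over 3; control wells and wells with under 50 cells never active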
- Calls: active = Tnf reporter clearly lowered or raised; inactive = no clear change in Tnf reporter
Shown is one part, drawn at random, of about 17,000 reagents. About 1,110 of all reagents (6.6%) were called active. 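Active means lowered or raised reporter signal; replicate intensities are raw and not normalised per plate.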 Entries without a mark were called inactive. Further read-outs or replicates are left out here.

Which result is listed for Ppfia2?
Tnf reporter robust z-score: -0.88; fewer than 50 cells in well: enough cells in well

For Taf1c, what was measured?
Tnf reporter robust z-score: 0.77; fewer than 50 cells in well: enough cells in well

What is on record for Gdf5?
Tnf reporter robust z-score: 0.73; fewer than 50 cells in well: enough cells in well

What is on record for Ldah?
Tnf reporter robust z-score: -0.76; fewer than 50 cells in well: enough cells in well

For Pag1, how do the results read?
Tnf reporter robust z-score: -0.95; fewer than 50 cells in well: enough cells in well

For Sncb, what does the deposit list?
fewer than 50 cells in well: fewer than 50 cells per well; well left out of calls

With Brcc3, what was measured?
fewer than 50 cells in well: fewer than 50 cells per well; well left out of calls

How did the screen score Mospd3?
Tnf reporter robust z-score: 2.06; fewer than 50 cells in well: enough cells in well

What is on record for Aldoa?
Tnf reporter robust z-score: -0.04; fewer than 50 cells in well: enough cells in well

What is on record for Pced1b?
Tnf reporter robust z-score: -0.63; fewer than 50 cells in well: enough cells in well

With Or51a43, how do the results read?
Tnf reporter robust z-score: 2.8; fewer than 50 cells in well: enough cells in well

Records listed so far whose gene name begins with P or p (3):
Ppfia2 — Tnf reporter robust z-score = -0.88; fewer than 50 cells in well = enough cells in well
Pag1 — Tnf reporter robust z-score = -0.95; fewer than 50 cells in well = enough cells in well
Pced1b — Tnf reporter robust z-score = -0.63; fewer than 50 cells in well = enough cells in well

Further entries follow:
For Crlf1, what does the deposit list?
Tnf reporter robust z-score: 0.71; fewer than 50 cells in well: enough cells in well

Which result is listed for Adam1a?
Tnf reporter robust z-score: 3.28 (active); fewer than 50 cells in well: enough cells in well

What did the screen give for Med8?
fewer than 50 cells in well: fewer than 50 cells per well; well left out of calls

How did the screen score App?
Tnf reporter robust z-score: 0.32; fewer than 50 cells in well: enough cells in well

With Tnfsf13, how do the results read?
fewer than 50 cells in well: fewer than 50 cells per well; well left out of calls

What is on record for Macroh2a1?
Tnf reporter robust z-score: -0.27; fewer than 50 cells in well: enough cells in well

What did the screen give for Or8b1d?
fewer than 50 cells in well: fewer than 50 cells per well; well left out of calls

What is on record for Cdc42se1?
Tnf reporter robust z-score: 0.39; fewer than 50 cells in well: enough cells in well

What did the screen give for Slc35a4?
fewer than 50 cells in well: fewer than 50 cells per well; well left out of calls

What is on record for Zfp334?
Tnf reporter robust z-score: 1.34; fewer than 50 cells in well: enough cells in well

With Vmn1r222, what does the deposit list?
fewer than 50 cells in well: fewer than 50 cells per well; well left out of calls

With Tgm3, what does the deposit list?
Tnf reporter robust z-score: 0.3; fewer than 50 cells in well: enough cells in well

How did the screen score Pes1?
Tnf reporter robust z-score: 0; fewer than 50 cells in well: enough cells in well

What is on record for 4930447C04Rik?
Tnf reporter robust z-score: 2.58; fewer than 50 cells in well: enough cells in well

What did the screen give for Gip?
Tnf reporter robust z-score: -0.92; fewer than 50 cells in well: enough cells in well

With Or2y6, what does the deposit list?
Tnf reporter robust z-score: 0.57; fewer than 50 cells in well: enough cells in well
